These are yes or no findings as the source states them, for the method shown. In cells and extracts the contact can be indirect. Binding calls can cover weak binding; strength is not graded here.
Assays:
Test in all cases: co-IP; postnuclear membrane fractions of FLAG-tagged POUV-protein-rescued ZHBTc4 ESC lines grown in self-renewing conditions; precipitated with either E-cadherin or FLAG tag antibody, IgG control; immunoblot; conditions designed to detect interactions between membrane proteins
[1] = molecular target: E-cadherin (mouse (endogenous in ZHBTc4 ESCs))
[2] = molecular target: FLAG-tagged Xlpou25 (Xenopus laevis)
[3] = molecular target: FLAG-tagged Xlpou91 (Xenopus laevis)

Measured: binding

B1: p120-catenin (protein, UniProt P30999 1-938)
chain: MDDSEVESTASILASVKEQEAQFEKLTRALEEERRHVSAQLERVRVSPQDANSLMANGTLTRRHQNGRFVGDADLERQKFSDLKLNGPQDHNHLLYSTIPRMQEPGQIVETYTEEDPEGAMSVVSVETTDDGTTRRTETTVKKVVKTMTTRTVQPVPMGPDGLPVDASAVSNNYIQTLGRDFRKNGNGGPGPYVGQAGTATLPRNFHYPPDGYGRHYEDGYPGGSDNYGSLSRVTRIEERYRPSMEGYRAPSRQDVYGPQPQVRVGGSSVDLHRFHPEPYGLEDDQRSMGYDDLDYGMMSDYGTARRTGTPSDPRRRLRSYEDMIGEEVPPDQYYWAPLAQHERGSLASLDSLRKGMPPPSNWRQPELPEVIAMLGFRLDAVKSNAAAYLQHLCYRNDKVKTDVRKLKGIPILVGLLDHPKKEVHLGACGALKNISFGRDQDNKIAIKNCDGVPALVRLLRKARDMDLTEVITGTLWNLSSHDSIKMEIVDHALHALTDEVIIPHSGWEREPNEDCKPRHIEWESVLTNTAGCLRNVSSERSEARRKLRECDGLVDALIFIVQAEIGQKDSDSKLVENCVCLLRNLSYQVHREIPQAERYQEALPTVANSTGPHAASCFGAKKGKDEWFSRGKKPTEDPANDTVDFPKRTSPARGYELLFQPEVVRIYISLLKESKTPAILEASAGAIQNLCAGRWTYGRYIRSALRQEKALSAIAELLTSEHERVVKAASGALRNLAVDARNKELIGKHAIPNLVKNLPGGQQNSSWNFSEDTVVSILNTINEVIAENLEAAKKLRETQGIEKLVLINKSGNRSEKEVRAAALVLQTIWGYKELRKPLEKEGWKKSDFQVNLNNASRSQSSHSYDDSTLPLIDRNQKSDKKPDREEIPMSNMGSNTKSLDNNYSTLNERGDHNRTLDRSGDLGDMEPLKGAPLMQKI
binds: [1] | [2] | [3]
